Values as published with doi:10.1371/journal.pone.0140310, rounded.

Drugs:
tozasertib: Cc1cc(Nc2cc(N3CCN(C)CC3)nc(Sc3ccc(NC(=O)C4CC4)cc3)n2)n[nH]1 at 0.03 µM
dorsomorphin: c1cc(-c2cnn3cc(-c4ccc(OCCN5CCCCC5)cc4)cnc23)ccn1 at 2 µM
ABT-263: CC1(C)CCC(c2ccc(Cl)cc2)=C(CN2CCN(c3ccc(C(=O)NS(=O)(=O)c4ccc(N[C@H](CCN5CCOCC5)CSc5ccccc5)c(S(=O)(=O)C(F)(F)F)c4)cc3)CC2)C1 at 2 µM
STA-4783: CN(NC(=O)CC(=O)NN(C)C(=S)c1ccccc1)C(=S)c1ccccc1 at 0.03 µM
selumetinib: Cn1cnc2c(F)c(Nc3ccc(Br)cc3Cl)c(C(=O)NOCCO)cc21 at 0.075 µM
crizotinib: C[C@@H](Oc1cc(-c2cnn(C3CCNCC3)c2)cnc1N)c1c(Cl)ccc(F)c1Cl at 1 µM
pazopanib: Cc1ccc(Nc2nccc(N(C)c3ccc4c(C)n(C)nc4c3)n2)cc1S(N)(=O)=O at 2 µM
GSK650394: O=C(O)c1ccc(-c2c[nH]c3ncc(-c4ccccc4)cc23)cc1C1CCCC1 at 0.8 µM
GW441756: Cn1cc(/C=C2\C(=O)Nc3cccnc32)c2ccccc21 at 2 µM
tamatinib: COc1cc(Nc2ncc(F)c(Nc3ccc4c(n3)NC(=O)C(C)(C)O4)n2)cc(OC)c1OC at 2 µM
NVP-TAE684: COc1cc(N2CCC(N3CCN(C)CC3)CC2)ccc1Nc1ncc(Cl)c(Nc2ccccc2S(=O)(=O)C(C)C)n1 at 0.4 µM
bortezomib: CC(C)C[C@H](NC(=O)[C@H](Cc1ccccc1)NC(=O)c1cnccn1)B(O)O at 0.005 µM

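Human melanoma cells were exposed to two drugs together for 72 h in 1,536-well plates and read by automated microscopy after fixing and staining. Each value is the cleaved-PARP-positive fraction of nuclei relative to DMSO-treated wells, in %, so that 100 equals the control and higher values mean more apoptosis. Every drug was used at one fixed concentration, the higher of two screened. These are primary screening values without error estimates. The marker varies much from line to line, for technical or biological reasons.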
This is part of the screen, not chosen by result.
An entry leaves out what has no value listed here.
A dash means that no value is listed here.

Drugs	COLO 792	RVH-421	WM115	SK-MEL-2	WM451Lu	SK-MEL-30
tozasertib + STA-4783	256	104	2860	61.4	49.2	86.5
NVP-TAE684 + selumetinib	120	114	151	560	620	229
GSK650394 + NVP-TAE684	108	122	155	153	160	75.4
STA-4783 + NVP-TAE684	3330	75.6	1020	216	124	150
crizotinib + STA-4783	196	217	6330	33.1	593	149
bortezomib + selumetinib	575	4360	1530	581	405	1520
selumetinib + STA-4783	521	75.2	445	304	496	644
GSK650394 + dorsomorphin	187	216	240	191	126	69.6
NVP-TAE684 + GW441756	54.9	83.3	106	48.0	46.4	110
crizotinib + NVP-TAE684	114	83.5	561	103	267	52.8
GW441756 + tamatinib	167	85.6	130	19.7	150	137
STA-4783 + GSK650394	945	115	472	26.5	203	117
GW441756 + dorsomorphin	57.5	107	78.3	46.0	60.9	275
STA-4783 + pazopanib	431	162	1190	30.0	107	107
tozasertib + dorsomorphin	115	198	109	112	179	108
GW441756 + pazopanib	35.2	83.9	43.7	45.6	18.1	60.5
selumetinib + crizotinib	119	170	304	248	125	200
tamatinib + pazopanib	177	138	75.4	188	67.1	21.3
tozasertib + ABT-263	1360	119	1560	419	223	362
tamatinib + STA-4783	3210	100	2150	17.6	123	42.5
bortezomib + crizotinib	295	137	1930	165	675	1560
pazopanib + dorsomorphin	180	53.0	178	90.1	544	222
tozasertib + GW441756	83.0	180	41.4	79.7	48.7	117
tamatinib + GSK650394	191	99.3	269	120	160	118
bortezomib + tozasertib	315	1100	8650	421	786	1470
tozasertib + pazopanib	136	88.9	133	112	46.5	119
bortezomib + ABT-263	8240	3120	8390	485	1640	1620
pazopanib + NVP-TAE684	152	128	193	116	362	42.8
pazopanib + crizotinib	139	84.0	303	33.2	225	110
NVP-TAE684 + tamatinib	1080	54.4	163	46.1	739	130
crizotinib + GSK650394	120	102	118	168	67.7	139
NVP-TAE684 + bortezomib	249	343	154	409	3780	237
STA-4783 + dorsomorphin	633	104	2490	-	40.4	126
ABT-263 + pazopanib	7500	363	346	167	126	538
selumetinib + GSK650394	144	106	153	171	178	117

Some entries from above, unchanged:

{"drugs": "GW441756 + tamatinib", "COLO 792": 167, "RVH-421": 85.6, "WM115": 130, "SK-MEL-2": 19.7, "WM451Lu": 150, "SK-MEL-30": 137}
{"drugs": "crizotinib + NVP-TAE684", "COLO 792": 114, "RVH-421": 83.5, "WM115": 561, "SK-MEL-2": 103, "WM451Lu": 267, "SK-MEL-30": 52.8}
{"drugs": "selumetinib + crizotinib", "COLO 792": 119, "RVH-421": 170, "WM115": 304, "SK-MEL-2": 248, "WM451Lu": 125, "SK-MEL-30": 200}